Here are results for 2 molecules from paper PMC5359613.

Results are given in words; binding and its absence hold for the method and conditions named. For some of these results: Binding calls can cover weak binding; strength is not graded here. Tags and fused reporters may be left off the sequences shown.

What all share (assay): two-hybrid; Gal4 activation domain (pGADT7) and DNA binding domain (pGBKT7) fusions co-transformed into S. cerevisiae PJ69-4A; growth on -histidine + 0.5 mM 3-amino triazole or -adenine, and β-galactosidase activity
Assay [1] addresses T1, MadB of Phycomyces blakesleeanus (homolog of N. crassa WC-2) (Phycomyces blakesleeanus) (UniProt B5M9P7).
T1 sequence: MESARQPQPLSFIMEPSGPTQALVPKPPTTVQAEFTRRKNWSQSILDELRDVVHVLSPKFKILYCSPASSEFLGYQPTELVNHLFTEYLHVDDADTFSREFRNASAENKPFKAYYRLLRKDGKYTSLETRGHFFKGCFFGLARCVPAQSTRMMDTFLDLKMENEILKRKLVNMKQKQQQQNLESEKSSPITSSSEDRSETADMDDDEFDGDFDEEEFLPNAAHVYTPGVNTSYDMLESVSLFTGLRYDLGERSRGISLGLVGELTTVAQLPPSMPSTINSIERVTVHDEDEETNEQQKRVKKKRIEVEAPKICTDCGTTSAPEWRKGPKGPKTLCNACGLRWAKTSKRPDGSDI

Assay [2] concerns the target MadA of Phycomyces blakesleeanus (homolog of N. crassa WC-1) (Phycomyces blakesleeanus).
For assay [3], the target named is RasB, Ras homolog of Phycomyces blakesleeanus (Phycomyces blakesleeanus).
For assay [4], the target named is RasA, Ras homolog of Phycomyces blakesleeanus (Phycomyces blakesleeanus).

In the case of “MadA of Phycomyces blakesleeanus (homolog of N. crassa WC-1)”, the binding result in assay [1] is given as “binds”.

B1: MadC protein of Phycomyces blakesleeanus (Ras GTPase activating protein) (protein, UniProt A0A1U9IW06 1-821)
chain: MAGHTHVLSDSHSRTIPSDYLANSTIVSRAMAAAAANNHHNAHAIRRGRQSHRYDVSVFYSMAAEQDIEIEDDLALAQRTLRDFKSNISAQSKKNFMLERDVRFLDSRIALLIQNRMALDEQTEVVSHLEYHDDDTEGHYPDDRKMQQYGSLFFLLQCEPRHMATLCRLVRLSEIDTLLQTVMFTLYGNQYESREEHLLLTMFQNVLAAQFETTSEFASLLRANTPVSRMMTTYTRRGPGQSYLKLVLSDRINRLIEQVDLNLQINPLKVYEELILAAEEGREEDQGLERGISAEGAAAHPQVKATIKPRLALLMETAESFLDTILGSLDKVPYGIRWICKQIRSLTRRKYPDASDSAIASLIGGFFFLRFINPAIVTPQAYMLVDNLPKNHPRAVLTLVAKLLQNLANKPAYAKESYMIPTNSFIEKNKQRINKFLNDLCEVGDFYESLEMDQYMTLSKKDIIINITPNEIYNTLALLQQHIDILAPKPTDHLRVLVSELGTALPQVARQHNKPIELPLFSRWEIPIQDLTMALMSENNITQSDITYMETKAIFVQIIRSLPYLSRPPLQLAQILETANTAKDPLLTRKGLKVTEMLDELERMGVIHRQDGYKLLVEEITQELAHLGDLKDKVVEEMGSLEGVYKTILDHNNYLKIQLESYRAYLQNVRMLSIGNTKEAVHHGHEPALAEKQVGLGVALTTGKTAKKTVKSQHLQGPFKFSHQQLEREGVIAETEVAEHRRCNIFLSVLSPLPGTFIISLHYKGRERPVLEIDLKLDDLLERQQDNVQLLDLEYMKLHVTKTLQLLTKTFMTKNKTGFFS
B1: the binding entry in assay [2] is “no binding”; in assay [3], “binds”; in assay [4], “binds”.
